Measurements taken from publication PMC6629890.
These are yes or no findings as the source states them, for the method shown. In cells and extracts the contact can be indirect. A yes stands for co-enrichment or nearness to the bait. Other partners may have been found.

target: T1, glyceraldehyde-3-phosphate dehydrogenase of P. lutzii (recombinant bait or endogenous: the approach is not told for these partners) (Paracoccidioides lutzii) (UniProt Q8X1X3); assay: affinity purification with mass spectrometry + native gel or EMSA; Ni-NTA pull down with recombinant GAPDH or Blue Native PAGE of P. lutzii extracts, each with mass spectrometry; the text shown does not tell which of the two approaches found these partners
T1 sequence: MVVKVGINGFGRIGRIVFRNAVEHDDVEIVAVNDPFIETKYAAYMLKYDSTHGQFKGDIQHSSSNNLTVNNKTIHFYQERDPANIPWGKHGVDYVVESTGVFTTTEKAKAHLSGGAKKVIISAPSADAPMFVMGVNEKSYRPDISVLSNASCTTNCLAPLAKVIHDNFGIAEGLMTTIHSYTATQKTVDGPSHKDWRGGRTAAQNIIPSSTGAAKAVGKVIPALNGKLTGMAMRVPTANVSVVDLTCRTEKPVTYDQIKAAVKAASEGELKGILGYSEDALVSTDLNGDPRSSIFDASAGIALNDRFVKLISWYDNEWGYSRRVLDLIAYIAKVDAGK

Question: How did the binding turn out when L-threonine 3-dehydrogenase (enzyme) was run?
Answer: binds

Question: How did the binding turn out when aconitase (enzyme) was run?
Answer: binds

Question: Which binding does the source give for acyl-CoA dehydrogenase (enzyme) here?
Answer: binds

Question: With adenosylhomocysteinase (enzyme) as the substance, how does the binding read?
Answer: binds

Question: For aspartate aminotransferase (enzyme), which binding is on record?
Answer: binds

Question: With citrate synthase (enzyme) as the substance, how does the binding read?
Answer: binds

Question: Which binding does the source give for “cobalamin-independent methionine synthase (enzyme)” here?
Answer: binds

Question: How did the binding turn out when cystathionine γ-lyase (enzyme) was run?
Answer: binds

Question: fumarylacetoacetase (enzyme) was tested. Which binding did it give?
Answer: binds

Question: For isovaleryl-CoA dehydrogenase (enzyme), which binding is on record?
Answer: binds

Question: Which binding does the source give for malate dehydrogenase (enzyme) here?
Answer: binds

Question: o-acetylhomoserine thiol-lyase (enzyme) was tested. Which binding did it give?
Answer: binds

Question: Which binding does the source give for “oxidoreductase 2-nitropropane dioxygenas (enzyme)” here?
Answer: binds

Question: peroxin-19 was tested. Which binding did it give?
Answer: binds

Question: Which binding does the source give for pyruvate decarboxylase (enzyme) here?
Answer: binds

Question: How did the binding turn out when “ribose-phosphate pyrophosphokinase (enzyme)” was run?
Answer: binds

Question: Which binding does the source give for tubulin α-1 chain here?
Answer: binds
